Earlier results on one molecule are cited in article PMC6438731, “Extrasynaptic δ‐GABAA receptors are high‐affinity muscimol receptors” (Journal of Neurochemistry, 2019).

This data set has as its system δ‐GABARs. The note with it: read-out: GABA EC50, 'typically', no reference given; cited from earlier work.

Turning to `NCCCC(=O)O` [GABA, gamma‐aminobutyric acid], the EC50 was 300 to 1000 nM.
